Laboratory results: PubChem BioAssay AID1224827 (NIAID, 2016)
Assay: 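Confirm genes whose knock-down changes LPS-driven TNF promoter activity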 (follow-up of hits). System: RAW264.7 G9 mouse macrophage reporter clone. Knock-down reagent: single siRNA against mouse genes, 100 nM siRNA. Duration: siRNA for 2 days, then LPS about 16 h. Treatment: bacterial lipopolysaccharide (LPS), 10 ng/ml, cells fixed after overnight (about 16 h) stimulation. Read-out: 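TNF promoter reporter red fluorescence in nuclei, background subtracted, normalised per plate and to non-targeting control siRNA, as z-scores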. Scale: TNF reporter z-score, mean: higher = stronger Tnf promoter reporter signal. Call rule: 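An siRNA is called active when its mean z-score over replicates is at least +2 or at most -2; control wells get no call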.
This is a random part of about 3,800 reagents tested. About 2,200 of them (57%) count as active. 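Active means a strong reporter change in either direction; calls are per siRNA, not per gene; qiagen siRNAs gave weaker effects.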 Reagents against one gene are numbered here. Further read-outs or replicates are left out here.

TNF reporter z-score, mean, by target gene and reagent
Nfyb: #1 2.15 active; #2 -0.334 inactive; #3 -0.694 inactive; #4 1.67 inactive; #5 0.281 inactive; #6 -2.5 active
Nab1: #1 -0.406 inactive; #2 -1.66 inactive; #3 -2.87 active; #4 -0.757 inactive; #5 -1.75 inactive; #6 -1.46 inactive
LOC269472 (retired record): #1 2.55 active; #2 2.34 active; #3 2.23 active
Rab8a: #1 -0.983 inactive; #2 -2.5 active; #3 -3.25 active; #4 -0.122 inactive; #5 -0.0837 inactive; #6 -1.04 inactive
Irf2bpl: #1 -0.509 inactive; #2 -1.12 inactive; #3 -2.91 active; #4 4.26 active; #5 2.89 active; #6 0.966 inactive

Not a retest: 3 of the entries above.
TNF reporter z-score, mean, by target gene and reagent
Rab8a: #6 -1.04 inactive
Irf2bpl: #1 -0.509 inactive; #2 -1.12 inactive
